What follows is the remainder of the data, with few or none of the strong results.
Each compound was assayed against T1, Protein deacetylase HDAC6 (Homo sapiens) (UniProt Q9UBN7). Conditions: at 10 µM.
T1 sequence (whole entry): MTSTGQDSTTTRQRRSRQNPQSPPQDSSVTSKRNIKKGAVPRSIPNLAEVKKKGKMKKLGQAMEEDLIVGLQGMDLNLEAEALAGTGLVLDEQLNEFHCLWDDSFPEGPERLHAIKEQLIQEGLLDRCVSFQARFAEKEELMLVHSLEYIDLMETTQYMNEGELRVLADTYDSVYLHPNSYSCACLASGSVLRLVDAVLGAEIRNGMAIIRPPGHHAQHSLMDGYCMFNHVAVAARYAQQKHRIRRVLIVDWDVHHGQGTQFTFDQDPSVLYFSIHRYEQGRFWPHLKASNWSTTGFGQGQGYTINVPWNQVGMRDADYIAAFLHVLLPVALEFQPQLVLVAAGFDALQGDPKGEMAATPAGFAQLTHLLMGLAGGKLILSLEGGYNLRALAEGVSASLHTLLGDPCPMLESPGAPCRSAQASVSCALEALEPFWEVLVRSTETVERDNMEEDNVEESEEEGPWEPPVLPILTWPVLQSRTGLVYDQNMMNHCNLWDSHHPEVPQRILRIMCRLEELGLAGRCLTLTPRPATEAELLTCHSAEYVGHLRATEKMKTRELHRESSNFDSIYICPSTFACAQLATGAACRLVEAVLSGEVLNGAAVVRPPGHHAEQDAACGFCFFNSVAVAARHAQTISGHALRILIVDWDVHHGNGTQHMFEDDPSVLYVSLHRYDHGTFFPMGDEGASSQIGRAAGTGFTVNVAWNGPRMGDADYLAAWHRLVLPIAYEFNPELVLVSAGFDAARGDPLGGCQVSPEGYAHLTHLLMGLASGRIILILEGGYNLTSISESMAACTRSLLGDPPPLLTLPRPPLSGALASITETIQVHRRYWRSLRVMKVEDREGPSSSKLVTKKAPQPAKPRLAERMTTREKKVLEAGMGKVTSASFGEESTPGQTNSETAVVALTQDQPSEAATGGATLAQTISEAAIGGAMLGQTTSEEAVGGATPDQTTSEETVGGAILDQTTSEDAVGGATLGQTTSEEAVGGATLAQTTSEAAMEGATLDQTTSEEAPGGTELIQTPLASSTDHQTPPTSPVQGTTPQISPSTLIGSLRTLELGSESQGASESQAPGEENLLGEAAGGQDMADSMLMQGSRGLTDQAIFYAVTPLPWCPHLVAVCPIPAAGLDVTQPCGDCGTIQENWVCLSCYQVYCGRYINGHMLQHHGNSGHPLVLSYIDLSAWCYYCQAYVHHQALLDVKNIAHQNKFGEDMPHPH

Going from `Cc1ccc(C(=O)NCCCCCC(=O)Nc2ccccc2N)cc1` to `COC(=O)[C@H](CCCNC(=N)N)NS(=O)(=O)c1ccc(C)cc1`, the inhibition falls from 30.7% to 4.53%.

With `O=C1NC(=O)c2c1c(-c1ccccc1)cc1[nH]c3ccc(O)cc3c21` the inhibition was 23.8%.

From ChEMBL document CHEMBL4808148, “HDAC6 screening dataset using tau-based substrate in an enzymatic assay yields selective inhibitors and activators” (2021)
